Biological target: ER-like binding site (specific [3H]-E2 binding)
Test: Competitive displacement of specific [3H]-E2 binding in gonad cytosolic extracts
Settings: read-out: IC50, displacement of specific [3H]-E2 binding; 24 nM [3H]-E2, 18 hr incubation, n = 3

CC/C(=C(\c1ccccc1)c1ccc(OCCN(C)C)cc1)c1ccccc1 [Tam, tamoxifen] was tested, and the IC50 was 1470 nM.

— PMC1874184 (Environmental Health Perspectives, 2005)
